From US8183201B2 (priority 2006, dated 2012)

Test system: Human prostate adenocarcinoma PC-3 cells
Parameters: species or system SCID mice
Details: mouse, in vivo, 1.5 mg/kg

Compound: NCCCC(O)(P(=O)(O)O)P(=O)(O)O [Alendronate, alendronate, reference compound]
- tumor-induced increase in the serum calcium concentration (hypercalcemia): inhibited a tumor-induced increase in the serum calcium concentration
- tumor growth in legs (in words) (sc): did not inhibit the tumor growth in legs
